Data on two substances can be found in PMC11208599.

By UniProt entry, the sequences of proteins in these tests, tags left out.
UniProt P42224: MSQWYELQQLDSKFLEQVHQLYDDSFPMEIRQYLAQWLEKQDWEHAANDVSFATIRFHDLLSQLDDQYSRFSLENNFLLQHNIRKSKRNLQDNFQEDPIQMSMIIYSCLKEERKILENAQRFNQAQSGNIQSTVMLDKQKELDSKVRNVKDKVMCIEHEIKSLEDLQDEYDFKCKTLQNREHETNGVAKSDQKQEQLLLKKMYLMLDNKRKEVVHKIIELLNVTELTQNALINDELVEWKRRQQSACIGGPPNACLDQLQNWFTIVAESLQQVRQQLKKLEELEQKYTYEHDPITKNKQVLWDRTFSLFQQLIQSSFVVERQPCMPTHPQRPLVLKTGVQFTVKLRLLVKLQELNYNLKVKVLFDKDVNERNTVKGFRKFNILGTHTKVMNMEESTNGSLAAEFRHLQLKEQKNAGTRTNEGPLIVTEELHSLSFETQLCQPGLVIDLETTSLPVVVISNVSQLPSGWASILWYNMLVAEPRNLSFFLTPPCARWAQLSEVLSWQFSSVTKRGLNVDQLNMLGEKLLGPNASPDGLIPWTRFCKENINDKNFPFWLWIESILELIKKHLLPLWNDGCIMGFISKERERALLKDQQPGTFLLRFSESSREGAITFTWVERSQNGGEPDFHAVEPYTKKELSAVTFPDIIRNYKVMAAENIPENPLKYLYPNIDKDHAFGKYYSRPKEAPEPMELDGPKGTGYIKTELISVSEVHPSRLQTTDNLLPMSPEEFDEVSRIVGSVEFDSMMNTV

No constants are given. Whether binding was seen depends on the method and setting. In cells and extracts the contact can be indirect. Some results given as binding are weak or reduced against the parent protein; the word gives no strength. For some assays here: Sequences can lack the tags named with a protein.

The target in assay [1] is T1, TNFAIP3 interacting protein 3 (TNIP3), human, full-length construct expressed in HEK293T cells (human) (UniProt Q96KP6).
T1 sequence: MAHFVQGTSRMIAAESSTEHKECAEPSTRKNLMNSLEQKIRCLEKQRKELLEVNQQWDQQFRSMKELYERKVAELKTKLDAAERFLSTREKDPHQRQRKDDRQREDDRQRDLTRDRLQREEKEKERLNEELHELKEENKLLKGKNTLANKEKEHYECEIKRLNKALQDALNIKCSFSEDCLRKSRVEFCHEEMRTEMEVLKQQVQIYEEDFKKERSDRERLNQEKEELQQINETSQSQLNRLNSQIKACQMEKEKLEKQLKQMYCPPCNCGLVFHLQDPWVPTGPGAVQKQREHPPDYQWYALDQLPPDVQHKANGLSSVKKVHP
Nature of the assay: co-IP; HEK293T cells transfected with the indicated plasmids.

Assay [2] deals with T2, TNIP3 of the GST pull-down assay (UniProt Q96KP6).
T2 sequence: T1 sequence
The experiment in a line: pull-down; GST pull-down; purified GST used as a control; which partner carried GST is not told.

Take “signal transducer and activator of transcription 1 (STAT1), human, full-length construct expressed in HEK293T cells (from UniProt P42224 1-750)”: the binding entry in assay [1] was “binds”. As to “STAT1 of the GST pull-down assay (from UniProt P42224 1-750)”, the binding entry in assay [2] is listed as “binds”.
